The values that follow come from patent publication US20250283871A1, “COMPOSITIONS AND METHODS FOR MODULATING THE INTERACTION BETWEEN SS18-SSX FUSION ONCOPROTEIN AND NUCLEOSOMES” (Dana-Farber Cancer Institute, Inc., priority 2020, published 2025).

This series concerns BAF complex subunits and histone proteins. The experiment in a line: Mass spectrometry proteomics of purified HA-SS18 WT and HA-SS18-SSX1 complexes (Tables 5A-5E). Details: species or system human.
The mark [1] stands for this setting: HA-SS18SSX1_CHR_peptides: protein identified in the HA-SS18-SSX1 purification from solubilized chromatin (CHR), HEK-293T.
Where [2] appears, read: HA-SS18WT_CHR_peptides: HA-SS18 WT purification from nuclease-treated solubilized chromatin (CHR), HEK-293T, label = protein identified.
Setting [3] is: HA-SS18SSX1_CHR_peptides: proteins found in HA-SS18-SSX1 BAF complex purification from solubilized chromatin (CHR), HEK-293T.
[4] abbreviates: HA-SS18SSX1_NE_peptides: protein co-purified with HA-SS18-SSX1 BAF complexes from soluble nuclear extract (NE), HEK-293T cells.
The mark [5] stands for this setting: HA-SS18WT_NE_peptides: proteins co-purified with HA-SS18 WT from nuclear extract (NE), HEK-293T.
[6] abbreviates: HA-SS18SSX1 purification, NE (soluble nuclear extract) fraction, HEK-293T, peptides per identified protein.
Where [7] appears, read: HA-SS18WT_CHR_peptides: protein identified in HA-SS18 WT BAF complex purification from nuclease-treated solubilized chromatin (CHR), HEK-293T.
Setting [8] is: HA-SS18WT_NE_peptides: HA-SS18 WT complexes purified from nuclear extract (NE), HEK-293T, label = protein identified (Gene Symbol).

B1: ATAD2 (protein, UniProt Q6PL18 1-1390, looked up)
ATPase family AAA …: MVVLRSSLELHNHSAASATGSLDLSSDFLSLEHIGRRRLRSAGAAQKKPAATTAKAGDGSSVKEVETYHRTRALRSLRKDAQNSSDSSFEKNVEITEQLANGRHFTRQLARQQADKKKEEHREDKVIPVTRSLRARNIVQSTEHLHEDNGDVEVRRSCRIRSRYSGVNQSMLFDKLITNTAEAVLQKMDDMKKMRRQRMRELEDLGVFNETEESNLNMYTRGKQKDIQRTDEETTDNQEGSVESSEEGEDQEHEDDGEDEDDEDDDDDDDDDDDDDDEDDEDEEDGEEENQKRYYLRQRKATVYYQAPLEKPRHQRKPNIFYSGPASPARPRYRLSSAGPRSPYCKRMNRRRHAIHSSDSTSSSSSEDEQHFERRRKRSRNRAINRCLPLNFRKDELKGIYKDRMKIGASLADVDPMQLDSSVRFDSVGGLSNHIAALKEMVVFPLLYPEVFEKFKIQPPRGCLFYGPPGTGKTLVARALANECSQGDKRVAFFMRKGADCLSKWVGESERQLRLLFDQAYQMRPSIIFFDEIDGLAPVRSSRQDQIHSSIVSTLLALMDGLDSRGEIVVIGATNRLDSIDPALRRPGRFDREFLFSLPDKEARKEILKIHTRDWNPKPLDTFLEELAENCVGYCGADIKSICAEAALCALRRRYPQIYTTSEKLQLDLSSINISAKDFEVAMQKMIPASQRAVTSPGQALSTVVKPLLQNTVDKILEALQRVFPHAEFRTNKTLDSDISCPLLESDLAYSDDDVPSVYENGLSQKSSHKAKDNFNFLHLNRNACYQPMSFRPRILIVGEPGFGQGSHLAPAVIHALEKFTVYTLDIPVLFGVSTTSPEETCAQVIREAKRTAPSIVYVPHIHVWWEIVGPTLKATFTTLLQNIPSFAPVLLLATSDKPHSALPEEVQELFIRDYGEIFNVQLPDKEERTKFFEDLILKQAAKPPISKKKAVLQALEVLPVAPPPEPRSLTAEEVKRLEEQEEDTFRELRIFLRNVTHRLAIDKRFRVFTKPVDPDEVPDYVTVIKQPMDLSSVISKIDLHKYLTVKDYLRDIDLICSNALEYNPDRDPGDRLIRHRACALRDTAYAIIKEELDEDFEQLCEEIQESRKKRGCSSSKYAPSYYHVMPKQNSTLVGDKRSDPEQNEKLKTPSTPVACSTPAQLKRKIRKKSNWYLGTIKKRRKISQAKDDSQNAIDHKIESDTEETQDTSVDHNETGNTGESSVEENEKQQNASESKLELRNNSNTCNIENELEDSRKTTACTELRDKIACNGDASSSQIIHISDENEGKEMCVLRMTRARRSQVEQQQLITVEKALAILSQPTPSLVVDHERLKNLLKTVVKKSQNYNIFQLENLYAVISQCIYRHRKDHDKTSLIQKMEQEVENFSCSR
B1: under setting [1], the “Total (total peptides)” value stood at 24 and the “Unique (unique peptides)” value came to 23. Also, under setting [2], the “Total (peptides)” value came out at 14 and the “Unique (peptides)” value was 14.

B2: NXF1 (protein, UniProt Q9UBU9 2-619, looked up)
Nuclear RNA export factor 1: ADEGKSYSEHDDERVNFPQRKKKGRGPFRWKYGEGNRRSGRGGSGIRSSRLEEDDGDVAMSDAQDGPRVRYNPYTTRPNRRGDTWHDRDRIHVTVRRDRAPPERGGAGTSQDGTSKNWFKITIPYGRKYDKAWLLSMIQSKCSVPFTPIEFHYENTRAQFFVEDASTASALKAVNYKILDRENRRISIIINSSAPPHTILNELKPEQVEQLKLIMSKRYDGSQQALDLKGLRSDPDLVAQNIDVVLNRRSCMAATLRIIEENIPELLSLNLSNNRLYRLDDMSSIVQKAPNLKILNLSGNELKSERELDKIKGLKLEELWLDGNSLCDTFRDQSTYISAIRERFPKLLRLDGHELPPPIAFDVEAPTTLPPCKGSYFGTENLKSLVLHFLQQYYAIYDSGDRQGLLDAYHDGACCSLSIPFIPQNPARSSLAEYFKDSRNVKKLKDPTLRFRLLKHTRLNVVAFLNELPKTQHDVNSFVVDISAQTSTLLCFSVNGVFKEVDGKSRDSLRAFTRTFIAVPASNSGLCIVNDELFVRNASSEEIQRAFAMPAPTPSSSPVPTLSPEQQEMLQAFSTQSGMNLEWSQKCLQDNNWDYTRSAQAFTHLKAKGEIPEVAFMK
For the molecule B2, the “Total (peptides)” value under setting [3] is 1, the “Total (peptides)” value under setting [4] turned out to be 2 and the “Total (peptides)” value under setting [5] came out at 1. Moreover, the “Unique (peptides)” value was found to be 1 under setting [3], 2 under setting [4] and 1 under setting [5].

B3: METTL17 (protein, UniProt Q9H7H0 20-456, looked up)
Ribosome assembly protein …: VAPQARALAALVPGVTQVDNKSGFLQKRPHRQHPGILKLPHVRLPQALANGAQLLLLGSAGPTMENQVQTLTSYLWSRHLPVEPEELQRRARHLEKKFLENPDLSQTEEKLRGAVLHALRKTTYHWQELSYTEGLSLVYMAARLDGGFAAVSRAFHEIRARNPAFQPQTLMDFGSGTGSVTWAAHSIWGQSLREYMCVDRSAAMLVLAEKLLKGGSESGEPYIPGVFFRQFLPVSPKVQFDVVVSAFSLSELPSKADRTEVVQTLWRKTGHFLVLVENGTKAGHSLLMDARDLVLKGKEKSPLDPRPGFVFAPCPHELPCPQLTNLACSFSQAYHPIPFSWNKKPKEEKFSMVILARGSPEEAHRWPRITQPVLKRPRHVHCHLCCPDGHMQHAVLTARRHGRDLYRCARVSSWGDLLPVLTPSAFPPSTAQDPSES
On to B3, for which, under setting [3], the “Total (peptides)” value amounted to 1 and the “Unique (peptides)” value is listed as 1. Further, under setting [6], the “Total (total peptides)” value was 4 and the “Unique (unique peptides)” value turned out to be 3. Also, under setting [7], the “Total (total peptides)” value is on record as 2 and the “Unique (unique peptides)” value came to 2. Also, under setting [8], the “Total (peptides)” value turned out to be 5 and the “Unique (peptides)” value turned out to be 4.

B4: CHAMP1 (protein, UniProt Q96JM3 1-812, looked up)
Chromosome …: MEAFQELRKPSARLECDHCSFRGTDYENVQIHMGTIHPEFCDEMDAGGLGKMIFYQKSAKLFHCHKCFFTSKMYSNVYYHITSKHASPDKWNDKPKNQLNKETDPVKSPPLPEHQKIPCNSAEPKSIPALSMETQKLGSVLSPESPKPTPLTPLEPQKPGSVVSPELQTPLPSPEPSKPASVSSPEPPKSVPVCESQKLAPVPSPEPQKPAPVSPESVKATLSNPKPQKQSHFPETLGPPSASSPESPVLAASPEPWGPSPAASPESRKSARTTSPEPRKPSPSESPEPWKPFPAVSPEPRRPAPAVSPGSWKPGPPGSPRPWKSNPSASSGPWKPAKPAPSVSPGPWKPIPSVSPGPWKPTPSVSSASWKSSSVSPSSWKSPPASPESWKSGPPELRKTAPTLSPEHWKAVPPVSPELRKPGPPLSPEIRSPAGSPELRKPSGSPDLWKLSPDQRKTSPASLDFPESQKSSRGGSPDLWKSSFFIEPQKPVFPETRKPGPSGPSESPKAASDIWKPVLSIDTEPRKPALFPEPAKTAPPASPEARKRALFPEPRKHALFPELPKSALFSESQKAVELGDELQIDAIDDQKCDILVQEELLASPKKLLEDTLFPSSKKLKKDNQESSDAELSSSEYIKTDLDAMDIKGQESSSDQEQVDVESIDFSKENKMDMTSPEQSRNVLQFTEEKEAFISEEEIAKYMKRGKGKYYCKICCCRAMKKGAVLHHLVNKHNVHSPYKCTICGKAFLLESLLKNHVAAHGQSLLKCPRCNFESNFPRGFKKHLTHCQSRHNEEANKKLMEALEPPLEEQQI
As for B4, under setting [3], the “Total (peptides)” value is listed as 1 and the “Unique (peptides)” value came to 1.

B5: NHP2 (protein, UniProt Q9NX24 1-153, looked up)
H/ACA ribonucleoprotein …: MTKIKADPDGPEAQAEACSGERTYQELLVNQNPIAQPLASRRLTRKLYKCIKKAVKQKQIRRGVKEVQKFVNKGEKGIMVLAGDTLPIEVYCHLPVMCEDRNLPYVYIPSKTDLGAAAGSKRPTCVIMVKPHEEYQEAYDECLEEVQSLPLPL
As for B5, under setting [3], the “Total (peptides)” value is given as 1 and the “Unique (peptides)” value worked out at 1.
